The list shows a part of the results. These are further read-outs of the screen, such as a control signal, another cell line or another target. No call is given for them. The list favours compounds with an active or inconclusive main result. The note in brackets gives the kind of curve behind each potency; many fits are weak.
Assay: qHTS Assay for Lipid Storage Modulators in Drosophila S3 Cells;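 as to cell number change: cells counted by Cell Tracker Red CMTPX staining in the red channel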
Conditions: BODIPY lipid droplet fluorescence, 18-24 h; for cell number change: measured here: cell count max response, cells fed with added oleic acid
How it was run: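 Drosophila S3 cells loaded with oleic acid (400 uM, as added) and compounds at several concentrations; lipid droplets imaged by 488-nm laser-scanning cytometry, 500–530 nm intensity and object ratio to cell channel. Percent activity normalized to 20 uM Triacsin C.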

[1] = measured here: lipid fluorescence (Fed channel) AC50, cells fed with added oleic acid
[2] = measured here: cell number channel AC50, cells fed with added oleic acid

Row | Compound | cell number change [%] | AC50 [1] | AC50 [2]
1 | COc1cc(/C=C/C(=O)OCC(=O)N2CCC(Cc3ccccc3)CC2)ccc1O | 25.1 | 29.1 µM [rising, single point] | –
2 | Cc1cccc(CCNC(=O)COc2cc(=O)n(C)c3ccccc23)c1 | -48.6 | 0.326 µM [falling, full curve, poor fit] | 18.4 µM [falling, partial curve, poor fit]
3 | C=CCn1c(-c2cccn(Cc3cccc(Cl)c3)c2=O)n[nH]c1=S | -11.5 | 23.1 µM [falling, single point] | –
4 | O=C(/C=C/c1ccco1)NC(=S)Nc1nc(-c2ccc3ccccc3c2)cs1 | -2.19 | 9.2 µM [rising, single point] | –
5 | C=CCn1c(C)cc(C(=O)COC(=O)/C=C/c2c(C)nn(C3CCS(=O)(=O)C3)c2Cl)c1C (stereo unspecified) | 21.5 | – | 1.84 µM [rising, full curve, poor fit]
6 | COc1cccc(CC(=O)Nc2ccc(S(=O)(=O)Nc3nc(C)cc(C)n3)cc2)c1 | -39.5 | 32.6 µM [falling, partial curve, poor fit] | –
7 | CC(=O)c1cccc(NC(=O)N2C3CCCC2CC(NC(=O)C2CC2)C3)c1 (stereo unspecified) | 15 | – | –
8 | COc1ccc(C(=O)OC(C)C(=O)NC(C)CCc2ccccc2)cc1[N+](=O)[O-] (stereo unspecified) | 37.8 | – | 25.9 µM [rising, single point]
9 | CN(CCOC(=O)/C=C/c1ccco1)Cc1ccccc1 | 3.06 | 6.51 µM [falling, single point] | –
10 | CCCn1c(SCC(=O)Nc2ccc3c(c2)OCCO3)nnc1-c1ccco1 | -18.2 | 0.00461 µM [rising, full curve, poor fit] | –
11 | COc1ccc(O[C@H]2C=C[C@@H](c3ccccc3)O[C@@H]2COC(=O)CC/C(C)=N/OC[C@@H](O)[C@H]2O[C@@H]3OC(C)(C)O[C@@H]3[C@H]2O)cc1 | – | 20.6 µM [rising, partial curve] | –
12 | CCCCC(=O)NC(Nc1nc(C2CC2)cs1)(C(=O)OCC)C(F)(F)F (stereo unspecified) | -68.9 | 6.51 µM [falling, partial curve] | 5.17 µM [falling, partial curve]
13 | O=C(CN(Cc1ccccc1F)C(=O)Cn1nnc(-c2cccs2)n1)NCC1CCCO1 (stereo unspecified) | -34.2 | – | 29.1 µM [falling, single point]
14 | O=C(Nc1ccncc1NC(=O)c1cccc([N+](=O)[O-])c1)c1cccc([N+](=O)[O-])c1 | 41.1 | 5.8 µM [rising, full curve, poor fit] | 0.58 µM [rising, full curve]
15 | O=C(NCc1ccccc1)c1cc(=O)c2ccccc2o1 | -17.6 | – | –
16 | Cc1ccc(/C=C/c2nc3ccccc3c(=O)n2CCc2ccccc2)cc1 | 14.8 | 0.146 µM [rising, full curve, poor fit] | –
17 | COc1ccc(-c2cc(C)no2)cc1S(=O)(=O)N1CCOc2ccc(Cl)cc21 | 66.9 | – | 29.1 µM [rising, single point]
18 | CC(C)OCCCNS(=O)(=O)c1ccc2c(c1)oc(=O)n2C | 3.52 | 1.64 µM [falling, partial curve] | –
19 | CCCCOc1cc(C)nc(NCc2ccccc2)n1 | -36.9 | 20.6 µM [falling, partial curve] | 1.84 µM [falling, full curve]
20 | COc1ccc2c(c1)c1nnc(SC)nc1n2C | 23.9 | – | 0.731 µM [rising, full curve, poor fit]
21 | O=C(NCc1ccc(Cl)cc1)c1cccc2c1C(=O)N(CC1CCCO1)C2 (stereo unspecified) | -14.1 | – | –
22 | COc1ccc(-c2nc(=S)n3ccsc3n2)cc1OC | 4 | – | 0.164 µM [rising, full curve]
23 | NC(=O)c1ccc[n+](CC(=O)c2ccc(Cl)c(Cl)c2)c1 | 96.5 | – | 10.3 µM [rising, partial curve]
24 | CC(C)c1ccc(NC(=O)CN2C(=O)COc3ccc(S(=O)(=O)N4CCOCC4)cc32)cc1 | – | 5.17 µM [rising, single point] | –
25 | CNC(=O)C1C2C=CC3(O2)C1C(=O)N(C1CC1)C3C(=O)NCc1ccc(OC)cc1 (stereo unspecified) | – | 5.17 µM [falling, partial curve] | –
26 | CC(C)COc1ccc(CNC(=S)N/N=C/c2ccc([N+](=O)[O-])cc2)cc1 | -30.6 | 14.6 µM [falling, partial curve] | 4.11 µM [falling, full curve, poor fit]
27 | CC(OC(=O)c1ccc(NC(=O)CC#N)cc1)C(=O)Nc1ccc2c(c1)OCCO2 (stereo unspecified) | 11.4 | 1.64 µM [rising, partial curve, poor fit] | –
28 | CCSC1=C(C#N)C(c2ccc(Cl)cc2)C2=C(CCCC2=O)N1 (stereo unspecified) | 10.5 | 11.6 µM [rising, partial curve, poor fit] | 1.46 µM [rising, partial curve]

2 records drawn at random from the list so far:
Row | Compound | cell number change [%] | AC50 [1] | AC50 [2]
16 | Cc1ccc(/C=C/c2nc3ccccc3c(=O)n2CCc2ccccc2)cc1 | 14.8 | 0.146 µM [rising, full curve, poor fit] | –
23 | NC(=O)c1ccc[n+](CC(=O)c2ccc(Cl)c(Cl)c2)c1 | 96.5 | – | 10.3 µM [rising, partial curve]
